Measurements taken from doi:10.1101/2020.05.30.124933.
These are yes or no findings as the source states them, for the method shown. Binding seen in cells or lysates may run through a third protein. Here binding means that the protein was enriched with, or labelled near, the bait; the list need not be complete.

Biological target: GST-WW: GST fusion construct encompassing the two WW domains of Hecw (636-834aa) (Drosophila melanogaster)
Assay: affinity purification with mass spectrometry

B1: Hrp48, endogenous in S2 cells (protein, UniProt P48809 1-421)
chain: MEEDERGKLFVGGLSWETTQENLSRYFCRFGDIIDCVVMKNNESGRSRGFGFVTFADPTNVNHVLQNGPHTLDGRTIDPKPCNPRTLQKPKKGGGYKVFLGGLPSNVTETDLRTFFNRYGKVTEVVIMYDQEKKKSRGFGFLSFEEESSVEHVTNERYINLNGKQVEIKKAEPRDGSGGQNSNNSTVGGAYGKLGNECSHWGPHHAPINMMQGQNGQMGGPPLNMPIGAPNMMPGYQGWGTSPQQQQYGYGNSGPGSYQGWGAPPGPQGPPPQWSNYAGPQQTQGYGGYDMYNSTSTGAPSGPSGGGSWNSWNMPPNSAGPTGAPGAGAGTATDMYSRAQAWATGGPSTTGPVGGMPRTGPGNSASKSGSEYDYGGYGSGYDYDYSNYVKQEGASNYGAGPRSAYGNDSSTQPPYATSQAV
For B1, the binding was “binds”.
